Values quoted from earlier work as cited in US12636282B1 (priority 2020, dated 2026).
At least one compound was matched to its structure with a doubt left.

Test system: COVID-19
Settings: in vivo

**Q.** With `CCC(CC)COC(=O)[C@H](C)N[P@](=O)(OC[C@H]1O[C@@](C#N)(c2ccc3c(N)ncnn23)[C@H](O)[C@@H]1O)Oc1ccccc1` [Remdesivir] as the compound, how does the length of hospitalization read?
**A.** decrease length of hospitalization
